This assay deals with T1, Flag-FBXL6 (human) (UniProt Q8N531).
T1 sequence: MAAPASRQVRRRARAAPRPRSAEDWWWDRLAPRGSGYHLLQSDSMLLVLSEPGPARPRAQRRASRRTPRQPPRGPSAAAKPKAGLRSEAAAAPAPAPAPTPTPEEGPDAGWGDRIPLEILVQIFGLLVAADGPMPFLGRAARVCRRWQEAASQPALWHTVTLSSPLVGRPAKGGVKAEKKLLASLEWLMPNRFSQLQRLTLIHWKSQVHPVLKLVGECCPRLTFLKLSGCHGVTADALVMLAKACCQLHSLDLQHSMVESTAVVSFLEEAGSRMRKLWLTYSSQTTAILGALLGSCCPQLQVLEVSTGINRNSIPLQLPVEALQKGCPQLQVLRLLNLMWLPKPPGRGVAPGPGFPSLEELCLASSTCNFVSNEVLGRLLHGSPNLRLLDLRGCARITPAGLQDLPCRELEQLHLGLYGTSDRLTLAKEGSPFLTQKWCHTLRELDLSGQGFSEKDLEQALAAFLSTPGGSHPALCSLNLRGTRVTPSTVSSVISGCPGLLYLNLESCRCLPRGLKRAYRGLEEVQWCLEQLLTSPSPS
In words: affinity purification with mass spectrometry; lysates of 293T cells transfected with Flag-con or Flag-FBXL6, IP with Flag M2 beads overnight at 4 °C, eluted by boiling, SDS-PAGE, Coomassie staining, mass spectrometry.

The chains behind the UniProt entries cited, without tags or fusion partners.
UniProt P63208: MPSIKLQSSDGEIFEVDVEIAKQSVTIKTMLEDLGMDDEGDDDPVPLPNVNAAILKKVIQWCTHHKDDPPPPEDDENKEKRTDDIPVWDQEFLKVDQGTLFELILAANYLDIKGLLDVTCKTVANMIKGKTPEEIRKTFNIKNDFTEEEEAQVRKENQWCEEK

These are yes or no findings as the source states them, for the method shown. In cells and extracts the contact can be indirect. These calls come from enrichment with a bait or labelling near it, and not all partners need be listed. Sequences can lack the tags named with a protein.

As to HSP90AA1 (from UniProt P07900 1-732), the binding entry is listed as “binds”.
For SKP1 (from UniProt P63208 1-163) the value was “binds”.
